A short description of one assay: PubChem AID 1586. The note with it: yeast two-hybrid polyglutamine protein interaction, reporter readout; measured here: averaged growth delta OD.
The nature of assay [1]: enhancers of SMN2 over SMN1 splicing, cell-based, SMN2/SMN1 luciferase reporters (AID 1598). The note with it: SMN2 vs SMN1 luciferase splicing reporter cells, at 10 µM; SMN1 luciferase ratio: measured here: SMN1 luciferase reporter average; SMN2 luciferase ratio: measured here: SMN2 luciferase reporter average, stronger effect = higher value. For orientation: In a reporter assay the amount or activity of a reporter protein is the signal.

The nature of assay [2]: protection against mutant huntingtin cytotoxicity, PC12 cells, LDH release (AID 1610). The note with it: PC12 mutant huntingtin toxicity, final LDH at 4 uM, stronger effect = lower value.

The other results are listed elsewhere or left out. These are further read-outs of the screen, such as a control signal, another cell line or another target. No call is given for them. For part of these data: The list favours compounds with an active or inconclusive main result. Bridge positions count the residues as written; N and C are the ends. Square brackets hold non-standard residues; d marks the D form. Peptide text beside a SMILES is read from it. * marks the point of attachment. ξ: configuration not given here. ξDab(CH2SO3H) = NC(CCNCS(=O)(=O)O)C(=O)O; Heptanoyl(6-Me) = CC(C)CCCCC(=O)*; Dab = NCC[CH](N)C(=O)O

In turn, `CSCCC(NC=O)C(=O)NC(CC(C)C)C(=O)NC(Cc1ccccc1)C(=O)O` (stereo unspecified) came in with a signal change (36 h minus 0 h) in the assay “PubChem AID 1586” of 0.123. Also, in assay [1], the SMN1 luciferase ratio was 0.83 and the SMN2 luciferase ratio was determined as 0.9. Moreover, the normalised LDH release in assay [2] was 0.64.

The compound `C=NC(C(=O)NC1C(=O)N2C1SC(C)(C)C2C(=O)O)c1ccccc1` (stereo unspecified) gave a signal change (36 h minus 0 h) in the assay “PubChem AID 1586” of 0.18. In assay [1], the SMN1 luciferase ratio amounted to 0.86 and the SMN2 luciferase ratio came out at 0.96. Besides, the normalised LDH release in assay [2] is 0.729.

Turning to `NC[C@@H]1O[C@H](OC2[C@@H](O)[C@H](O[C@@H]3[C@H](N)[C@@H](O)C[C@H](N)[C@H]3O[C@H]3O[C@H](CO)[C@@H](O)[C@H](O)[C@H]3N)O[C@@H]2CO)[C@H](N)[C@@H](O)[C@@H]1O` (stereo partly specified), in the assay “PubChem AID 1586”, the signal change (36 h minus 0 h) is -0.0493. In assay [1], the SMN1 luciferase ratio came to 0.94 and the SMN2 luciferase ratio was determined as 1. Besides, the normalised LDH release in assay [2] was found to be 0.832.

`COc1ccc(CN(CCN(C)C)c2ncccn2)cc1`: in “PubChem AID 1586”, the signal change (36 h minus 0 h) came to 0.196. Besides, in assay [1], the SMN1 luciferase ratio was determined as 0.89 and the SMN2 luciferase ratio is 0.95. In assay [2], this compound had a normalised LDH release of 0.189.

In turn, `N#Cc1ccc2c(c1)N(CCCN1CCC(O)CC1)c1ccccc1S2` displayed a signal change (36 h minus 0 h) in the assay “PubChem AID 1586” of 0.0531. In assay [1], the SMN1 luciferase ratio stood at 0.83 and the SMN2 luciferase ratio came out at 0.81. In assay [2], this compound registered a normalised LDH release of 0.828.

In the assay “PubChem AID 1586”, `Cc1cc(C(C)(C)C)cc(C)c1CC1=NCCN1` had a signal change (36 h minus 0 h) of 0.0906. Also, in assay [1], the SMN1 luciferase ratio was 0.85 and the SMN2 luciferase ratio was found to be 0.88. This compound gave a normalised LDH release in assay [2] of 0.925.

In the assay “PubChem AID 1586”, `COc1ccc2c(c1OC)C(=O)OC2[C@H]1c2c(cc3c(c2OC)OCO3)CCN1C` (stereo partly specified) displayed a signal change (36 h minus 0 h) of -0.0035. For the same compound, in assay [1], the SMN1 luciferase ratio was determined as 0.99 and the SMN2 luciferase ratio was determined as 0.86. This compound also showed a normalised LDH release in assay [2] of 0.931.

In “PubChem AID 1586”, `CC(Oc1ccccc1)C(=O)NC1C(=O)N2C(C(=O)O)C(C)(C)S[C@H]12` (stereo partly specified) yielded a signal change (36 h minus 0 h) of 0.199. Moreover, in assay [1], the SMN1 luciferase ratio was 0.96 and the SMN2 luciferase ratio is 1.01. This compound had a normalised LDH release in assay [2] of 1.57.

With `CCC(C)C1NC(=O)C(CCNCS(=O)(=O)O)NC(=O)C(NC(=O)C(CCNCS(=O)(=O)O)NC(=O)C(NC(=O)C(CCNCS(=O)(=O)O)NC(=O)CCCCC(C)C)C(C)O)CCNC(=O)C(C(C)O)NC(=O)C(CCNCS(=O)(=O)O)NC(=O)C(CCNCS(=O)(=O)O)NC(=O)C(C(C)CC)NC1=O` (stereo unspecified) ({Heptanoyl(6-Me)}-[ξDab(CH2SO3H)]T[ξDab(CH2SO3H)][Dab][ξDab(CH2SO3H)]II[ξDab(CH2SO3H)][ξDab(CH2SO3H)]T; lactam 4-C; configuration not given here), the signal change (36 h minus 0 h) in the assay “PubChem AID 1586” was 0.181. Moreover, in assay [1], the SMN1 luciferase ratio was 0.83 and the SMN2 luciferase ratio came out at 0.75. The same compound registered a normalised LDH release in assay [2] of 0.994.
